According to US20240254229A1 (Molecular Partners, published 2024):
No constants are given. Whether binding was seen depends on the method and setting. Some entries that bind do so weakly or less than the wild type.

Amino acid sequences for entries named in this document (tags omitted). Residues count along the entry.
UniProt P20138, residues 18-259: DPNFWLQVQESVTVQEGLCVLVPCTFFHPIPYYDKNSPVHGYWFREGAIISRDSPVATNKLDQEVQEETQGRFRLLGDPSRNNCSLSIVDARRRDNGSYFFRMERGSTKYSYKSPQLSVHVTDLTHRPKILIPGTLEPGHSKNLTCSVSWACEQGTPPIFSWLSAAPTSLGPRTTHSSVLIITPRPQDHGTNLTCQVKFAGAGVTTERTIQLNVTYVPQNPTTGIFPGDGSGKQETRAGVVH

T1: hCD123 (recombinant, construct not stated) (human) (UniProt P26951)
T1 sequence (looked up): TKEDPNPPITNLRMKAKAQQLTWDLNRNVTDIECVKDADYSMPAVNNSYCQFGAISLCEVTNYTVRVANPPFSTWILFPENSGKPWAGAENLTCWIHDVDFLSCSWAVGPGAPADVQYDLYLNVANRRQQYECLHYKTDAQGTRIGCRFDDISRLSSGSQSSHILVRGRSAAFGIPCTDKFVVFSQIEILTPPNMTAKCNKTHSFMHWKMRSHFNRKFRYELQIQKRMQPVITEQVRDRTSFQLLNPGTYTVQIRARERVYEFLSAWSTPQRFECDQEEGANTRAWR


Tests used:
[1] = biological target: hCD33 (recombinant, construct not stated) (human) (UniProt P20138); assay: switchSENSE, hCD33 and hCD123 co-immobilised 2:1; panel headed CD33, column koff1
[2] = biological target: hCD33 (recombinant, construct not stated) (human) (UniProt P20138); assay: switchSENSE, hCD33 and hCD123 co-immobilised 2:1; panel headed CD33, column kon1
[3] = biological target: hCD33 (recombinant, construct not stated) (human) (UniProt P20138); assay: switchSENSE, CD33 and CD123 on one chip
[4] = biological target: T1, hCD123 (recombinant, construct not stated) (human); assay: switchSENSE, hCD33 and hCD123 co-immobilised 2:1; panel headed CD123, y axis koff
[5] = biological target: T1, hCD123 (recombinant, construct not stated) (human); assay: switchSENSE, hCD33 and hCD123 co-immobilised 2:1; panel headed CD123, y axis kon
[6] = biological target: T1, hCD123 (recombinant, construct not stated) (human); assay: switchSENSE, CD33 and CD123 on one chip
[7] = biological target: T2, hCD33 and hCD123 immobilized simultaneously on one switchSENSE chip (ratio 2:1, CD33:CD123) (human) (UniProt P20138+P26951); assay: switchSENSE, hCD33 and hCD123 co-immobilised 2:1; panel headed CD33, column koff2 (slow phase, avidity per paragraph 695)
[8] = biological target: T2, hCD33 and hCD123 immobilized simultaneously on one switchSENSE chip (ratio 2:1, CD33:CD123) (human); assay: switchSENSE, hCD33 and hCD123 co-immobilised 2:1; panel headed CD123, column kon2 (second phase, avidity per paragraph 695)
[9] = biological target: T2, hCD33 and hCD123 immobilized simultaneously on one switchSENSE chip (ratio 2:1, CD33:CD123) (human); assay: switchSENSE, hCD33 and hCD123 co-immobilised 2:1; panel headed CD123, column koff2 (slow phase, avidity per paragraph 695)
[10] = biological target: T1, hCD123 (recombinant, construct not stated) (human); assay: switchSENSE, hCD33 and hCD123 co-immobilised 2:1; panel headed CD123, column koff1
[11] = biological target: T1, hCD123 (recombinant, construct not stated) (human); assay: switchSENSE, hCD33 and hCD123 co-immobilised 2:1; panel headed CD123, column kon1
[12] = biological target: T2, hCD33 and hCD123 immobilized simultaneously on one switchSENSE chip (ratio 2:1, CD33:CD123) (human); assay: switchSENSE, hCD33 and hCD123 co-immobilised 2:1; panel headed CD33, column kon2 (second phase, avidity per paragraph 695)
[13] = biological target: T2, hCD33 and hCD123 immobilized simultaneously on one switchSENSE chip (ratio 2:1, CD33:CD123) (human); assay: switchSENSE, CD33 and CD123 on one chip
[14] = biological target: hCD33 (recombinant, construct not stated) (human) (UniProt P20138); assay: switchSENSE, hCD33 and hCD123 co-immobilised 2:1 on DNA nanolevers; panel headed CD33, column kon1
[15] = biological target: T2, hCD33 and hCD123 immobilized simultaneously on one switchSENSE chip (ratio 2:1, CD33:CD123) (human); assay: switchSENSE, hCD33 and hCD123 co-immobilised 2:1; panel headed CD33, column kon2 (second phase, avidity per paragraph 692)
[16] = biological target: T2, hCD33 and hCD123 immobilized simultaneously on one switchSENSE chip (ratio 2:1, CD33:CD123) (human); assay: switchSENSE, hCD33 and hCD123 co-immobilised 2:1; panel headed CD123, y axis kon, second column (second phase, avidity per paragraph 692)
[17] = biological target: T2, hCD33 and hCD123 immobilized simultaneously on one switchSENSE chip (ratio 2:1, CD33:CD123) (human); assay: switchSENSE, hCD33 and hCD123 co-immobilised 2:1; panel headed CD123, y axis koff, second column (slow phase, avidity per paragraph 694)
[18] = biological target: T2, hCD33 and hCD123 immobilized simultaneously on one switchSENSE chip (ratio 2:1, CD33:CD123) (human); assay: switchSENSE; KD,2 (avidity)
[19] = biological target: T2, hCD33 and hCD123 immobilized simultaneously on one switchSENSE chip (ratio 2:1, CD33:CD123) (human); assay: switchSENSE, hCD33 and hCD123 co-immobilised 2:1; panel headed CD33, column koff2 (slow phase, avidity per paragraph 692)

Binder | binding [1] | binding [2] | binding [3] | binding [4] | binding [5] | binding [6] | binding [10] | binding [11] | binding [13] | binding [14] | also measured
DARPin® protein #21 (designed binder, also called αCD123-Ni2C-αCD3) DLGKKLLEAARAGQDDEVRILMANGADVNALDWLGHTPLHLAAYEGHLEIVEVLLKNGADVNAIDDNNGFTPLHLAAIDGHLEIVEVLLKNGADVNAQDKFGKTAFDISIDNGNEDLAEILQKAAGSPTPTPTTPTPTPTTPTPTPTGSDLGKKLLEAARAGQDDEVRELLKAGADVNAKDKDGYTPLHLAAREGHLEIVEVLLKAGADVNAKDKDGYTPLHLAAREGHLEIVEVLLKAGADVNAQDKSGKTPADLAADAGHEDIAEVLQKAAGSPTPTPTTPTPTPTTPTPTPTGSDLGQKLLEAAWAGQDDEVRILLAAGADVNAKNSRGWTPLHTAAQTGHLEIFEVLLKAGADVNAKNDKRVTPLHLAAALGHLEIVEVLLKAGADVNARDSWGTTPADLAAKYGHGDIAEVLQKLA | – | – | – | binds | binds | binds | – | – | – | – | –
DARPin® protein #22 (designed binder, also called Ni2C-αCD33-αCD3) DLGKKLLEAARAGQDDEVRELLKAGADVNAKDKDGYTPLHLAAREGHLEIVEVLLKAGADVNAKDKDGYTPLHLAAREGHLEIVEVLLKAGADVNAQDKSGKTPADLAADAGHEDIAEVLQKAAGSPTPTPTTPTPTPTTPTPTPTGSDLGDKLLLAATSGQDDEVRILLAAGADVNAKDYDGDTPLHLAADEGHLEIVEVLLKAGADVNAKDYSGSTPLHAAAAYGHLEIVEVLLKAGADVNAQDVFGYTPADLAAYVGHEDIAEVLQKAAGSPTPTPTTPTPTPTTPTPTPTGSDLGQKLLEAAWAGQDDEVRILLAAGADVNAKNSRGWTPLHTAAQTGHLEIFEVLLKAGADVNAKNDKRVTPLHLAAALGHLEIVEVLLKAGADVNARDSWGTTPADLAAKYGHGDIAEVLQKLA | binds | binds | binds | – | – | – | – | – | – | – | –
DARPin® protein #20 (designed binder, CD123-CD33-CD3; also called αCD123-αCD33-αCD3_1) DLGKKLLEAARAGQDDEVRILMANGADVNALDWLGHTPLHLAAYEGHLEIVEVLLKNGADVNAIDDNNGFTPLHLAAIDGHLEIVEVLLKNGADVNAQDKFGKTAFDISIDNGNEDLAEILQKAAGSPTPTPTTPTPTPTTPTPTPTGSDLGDKLLLAATSGQDDEVRILLAAGADVNAKDYDGDTPLHLAADEGHLEIVEVLLKAGADVNAKDYSGSTPLHAAAAYGHLEIVEVLLKAGADVNAQDVFGYTPADLAAYVGHEDIAEVLQKAAGSPTPTPTTPTPTPTTPTPTPTGSDLGQKLLEAAWAGQDDEVRILLAAGADVNAKNSRGWTPLHTAAQTGHLEIFEVLLKAGADVNAKNDKRVTPLHLAAALGHLEIVEVLLKAGADVNARDSWGTTPADLAAKYGHGDIAEVLQKLA | binds | – | – | binds | binds | – | – | – | binds | binds | binding [15]: binds; binding [16]: binds; binding [17]: binds; binding [18]: binds; binding [19]: binds

More lines, main results first:

binding [1] | binding [2] | binding [3] | binding [4] | binding [5] | binding [6] | binding [10] | binding [11] | binding [13] | binding [14] | Binder | also measured
binds | binds | binds | – | – | – | – | – | – | – | DARPin® protein #40 (designed binder, also called Ni2C-αCD33-αCD3) DLGKKLLEAARAGQDDEVRELLKAGADVNAKDKDGYTPLHLAAREGHLEIVEVLLKAGADVNAKDKDGYTPLHLAAREGHLEIVEVLLKAGADVNAQDKSGKTPADLAADAGHEDIAEVLQKAAGSPTPTPTTPTPTPTTPTPTPTGSDLGVKLLLAASRGQLDEVRILLKAGADVNAKDIDEGYTPLHIAAYYGHLEIVEVLLKAGADVNAKDRYGKTPLHLAAISGHLEIVEVLLKAGADVNAQDDKGDTPADLAADYGHQDIAEVLQKAAGSPTPTPTTPTPTPTTPTPTPTGSDLGQKLLEAAWAGQDDEVRELLKAGADVNAKNSRGWTPLHTAAQTGHLEIFEVLLKAGADVNAKDDKGVTPLHLAAALGHLEIVEVLLKAGADVNAQDSWGTTPADLAAKYGHEDIAEVLQKAA | –
binds | – | – | – | – | – | binds | binds | binds | binds | DARPin® protein #27 (designed binder, CD123-CD33-CD3; also called αCD123-aCD33-αCD3_1; not shown: N-terminal His-tag) DLGKKLLEAALEGQLDEVRELLKAGADVNAKDQEGYTPLHLAAALGHLEIVEVLLKAGADVNAKDSIGRTPLHLAAYKGHLEIVEVLLKAGADVNAQDLLGETPADLAAEQGHQDIAEVLQKAAGSPTPTPTTPTPTPTTPTPTPTGSDLGVKLLLAASRGQLDEVRILLKAGADVNAKDIDEGYTPLHIAAYYGHLEIVEVLLKAGADVNAKDRYGKTPLHLAAISGHLEIVEVLLKAGADVNAQDDKGDTPADLAADYGHQDIAEVLQKAAGSPTPTPTTPTPTPTTPTPTPTGSDLGQKLLEAAWAGQDDEVRELLKAGADVNAKNSRGWTPLHTAAQTGHLEIFEVLLKAGADVNAKDDKGVTPLHLAAALGHLEIVEVLLKAGADVNAQDSWGTTPADLAAKYGHEDIAEVLQKAA | binding [7]: binds; binding [8]: binds; binding [9]: binds; binding [12]: binds
– | – | – | – | – | binds | binds | binds | – | – | DARPin® protein #41 (designed binder, also called αCD123-Ni2C-αCD3) DLGKKLLEAALEGQLDEVRELLKAGADVNAKDQEGYTPLHLAAALGHLEIVEVLLKAGADVNAKDSIGRTPLHLAAYKGHLEIVEVLLKAGADVNAQDLLGETPADLAAEQGHQDIAEVLQKAAGSPTPTPTTPTPTPTTPTPTPTGSDLGKKLLEAARAGQDDEVRELLKAGADVNAKDKDGYTPLHLAAREGHLEIVEVLLKAGADVNAKDKDGYTPLHLAAREGHLEIVEVLLKAGADVNAQDKSGKTPADLAADAGHEDIAEVLQKAAGSPTPTPTTPTPTPTTPTPTPTGSDLGQKLLEAAWAGQDDEVRELLKAGADVNAKNSRGWTPLHTAAQTGHLEIFEVLLKAGADVNAKDDKGVTPLHLAAALGHLEIVEVLLKAGADVNAQDSWGTTPADLAAKYGHEDIAEVLQKAA | –
